The values below come from patent publication US20170088851A1, “METHODS FOR IMPROVING ABIOTIC STRESS RESPONSE” (The Regents of the University of California, priority 2011, published 2017).

The subject of this series is N-end rule pathway of targeted proteolysis (NERP). Kind of series: In vitro protein stability, heterologous rabbit reticulocyte lysate assay (TNT T7 Coupled Reticulocyte Lysate system, anti-HA immunoblot). The note with it: no inhibitor. In kind it is biochemical. The procedure:
Protein stability analyses. Full length cDNAs were PCR amplified from either Arabidopsis thaliana or Oryza sativa L. (cv. M202 (Sub1)). N-terminal mutations were introduced using a specific forward primer. For in vitro assays, cDNAs were cloned into a modified version of the pTNT vector (Promega) to produce C-terminal HA fusions. Stability assays were performed using the TNT T7 Coupled Reticulocyte Lysate system (Promega), essentially as described previously^23. For in vivo analysis of EIRE-HA proteins, cDNAs were cloned into pE2c, mobilized into pB2GW7 and transformed into Arabidopsis using the floral dip method. To Assess relative protein stability, equal amounts of total protein extracted from 7-day old T3 homozygous seedlings were analyzed by Western blot, and cDNA synthesized from total RNA was used as a template for semi-quantitative PCR.
In vitro analysis of protein stability: To generate Arabidopsis and rice protein-HA fusions driven by the T7 promoter, cDNAs were PCR amplified from Arabidopsis total cDNA or submerged rice cDNA (M202 (Sub1); as described^3 and ligated into a modified version of the pTNT […] expression vector (pTNT3xHA). N-terminal mutations were incorporated by changing the forward primer sequences accordingly (Table 1). Proteins were expressed in vitro using the TNT T7 Coupled Reticulocyte Lysate system (Promega) according to manufacturer's guidelines, using 500 ng plasmid template. Where appropriate, 100 μM MG132 or 1 mM dipeptides (arg-β-ala or ala-ala; Sigma-Aldrich) and […] Bestatin (Sigma-Aldrich) were added. Reactions were incubated at 30° C., and samples were taken at appropriate time points before mixing with protein loading dye to terminate protein synthesis. Equal amounts of each reaction were subjected to anti-HA immunoblot analysis.
Immunoblotting: Proteins resolved by SDS-PAGE were transferred to PVDF using a MiniTrans-Blot electrophoretic transfer cell (Bio-Rad). […]
In general terms: Immunoblotting shows a protein as a band on a membrane.

Substitutions are numbered along the chain they refer to. Numbers in names are those of the source.

B1: VRN2-HA: HA-tagged Arabidopsis …ON (VRN)2, an MC- protein (protein, UniProt Q8W5B1 1-440, looked up)
Polycomb group protein …: MCRQNCRAKSSPEEVISTDENLLIYCKPVRLYNIFHLRSLGNPSFLPRCLNYKIGAKRKRKSRSTGMVVFNYKDCNNTLQRTEVREDCSCPFCSMLCGSFKGLQFHLNSSHDLFEFEFKLLEEYQTVNVSVKLNSFIFEEEGSDDDKFEPFSLCSKPRKRRQRGGRNNTRRLKVCFLPLDSPSLANGTENGIALLNDGNRGLGYPEATELAGQFEMTSNIPPAIAHSSLDAGAKVILTTEAVVPATKTRKLSAERSEARSHLLLQKRQFYHSHRVQPMALEQVMSDRDSEDEVDDDVADFEDRQMLDDFVDVNKDEKQFMHLWNSFVRKQRVIADGHISWACEVFSRFYEKELHCYSSLFWCWRLFLIKLWNHGLVDSATINNCNTILENCRNTSVTNNNNNSVDHPSDSNTNNNNIVDHPNDIKNKNNVDNKDNNSRDK
modifications: HA tag
notes: HA-tagged Arabidopsis …ON (VRN)2, an MC- protein
For B1, the “in vitro stability of the protein” value is “degraded”.

B2: VRN2^c2A-HA: VRN2-HA with C2A mutation (protein, UniProt Q8W5B1 1-440, looked up, variant C2A)
Polycomb group protein …: B1 Polycomb group protein … with C2A
modifications: HA tag
notes: VRN2-HA with C2A mutation
B2: the “in vitro stability of the protein” value was “stabilized”.

B3: MAF5-HA: HA-tagged MADS AFFECTING FLOWERING(MAF)5 (protein, UniProt Q683D7 1-198, looked up)
Protein MADS AFFECTING …: MGRRRVEIKRIENKSSRQVTFCKRRNGLMEKARQLSILCGSSVALFIVSSTGKLYNSSSGDSMAKIISRFKIQQADDPETLDLEDKTQDYLSHKELLEIVQRKIEEAKGDNVSIESLISMEEQLKSALSVIRARKTELLMELVKNLQDKEKLLKEKNKVLASEVGKLKKILETGDERAVMSPENSSGHSPPETLPLLK
modifications: HA tag
For B3, the “in vitro stability of the protein” value is recorded as “stable”.
